In the supplement of paper PMC3334620:
Over roughly 33,000 sequences, “E-score (-0.5 to 0.5)” has its median near -0.016; the highest 2% begin near 0.3. The list shows a part of the results.

Biological target: T1, Yer184c (UniProt P39961)
T1 sequence: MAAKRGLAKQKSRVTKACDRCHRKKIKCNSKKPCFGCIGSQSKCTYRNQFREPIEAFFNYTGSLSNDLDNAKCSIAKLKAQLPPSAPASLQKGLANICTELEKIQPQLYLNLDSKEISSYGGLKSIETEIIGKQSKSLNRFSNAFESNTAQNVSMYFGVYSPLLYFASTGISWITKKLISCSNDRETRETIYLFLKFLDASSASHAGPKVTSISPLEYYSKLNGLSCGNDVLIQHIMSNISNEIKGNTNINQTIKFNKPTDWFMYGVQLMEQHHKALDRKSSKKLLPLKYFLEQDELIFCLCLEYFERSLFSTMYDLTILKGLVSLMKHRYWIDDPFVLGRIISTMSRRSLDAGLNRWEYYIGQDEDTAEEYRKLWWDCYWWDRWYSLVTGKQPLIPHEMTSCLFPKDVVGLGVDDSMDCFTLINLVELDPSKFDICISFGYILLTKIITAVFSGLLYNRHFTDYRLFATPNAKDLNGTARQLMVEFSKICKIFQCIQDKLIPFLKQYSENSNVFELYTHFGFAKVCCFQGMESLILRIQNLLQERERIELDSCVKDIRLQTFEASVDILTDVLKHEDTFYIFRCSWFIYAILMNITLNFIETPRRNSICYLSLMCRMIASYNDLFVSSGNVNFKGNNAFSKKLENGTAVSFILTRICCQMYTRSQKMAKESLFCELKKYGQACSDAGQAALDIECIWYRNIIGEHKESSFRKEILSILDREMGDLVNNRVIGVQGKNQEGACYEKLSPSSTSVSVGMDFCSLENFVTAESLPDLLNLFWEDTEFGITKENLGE
Experiment: PBM E-score (8-mer binding enrichment) (E-score (-0.5 to 0.5)); higher = stronger / more preferred TF binding
Conditions: protein concentration: 100 nM; construct: GST-full length
Description: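 Universal 'all 10-mer' protein binding microarrays (Agilent AMADID 015681) probed with GST-tagged S. cerevisiae TFs (full-length or DBD) made by in vitro transcription/translation (PURExpress), about 100-200 nM. Bound TF was detected with fluorescent anti-GST. Each ungapped 8-mer (which stands for itself and its reverse complement) is scored by the PBM enrichment score (E-score), a modified Wilcoxon-Mann-Whitney statistic from -0.5 to +0.5, computed with the Universal PBM Analysis Suite. Scale: above 0.35 generally sequence-specific binding.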

In order of falling “PBM E-score” value:
1. CCGCGGAA  0.416
2. AGTAATAT  0.338
3. CCGCGGGA  0.324
4. ATTTAATA  0.313
5. CGGCGGAA  0.298
6. ATCCGTGC  0.288
7. AGATTAAA  0.282
8. GTTGTACA  0.277
9. TTATCAAA  0.265
10. CCGGAGGA  0.265
11. GACCGAAA  0.265
12. CATAAAGA  0.264
13. GCCCCGGA  0.234
14. ATTCTAAA  0.229
15. GTTATTAA  0.225
16. GCCGTGCC  0.222
17. ATTCTCCG  0.213
18. AAAACTCG  0.208
19. AGGCGCCG  0.207
20. ATTCTTAC  0.205
21. TATGAACA  0.204
22. AAGTTGTA  0.2
23. CCGTTGAG  0.196
24. AATTCGTC  0.194
25. ATGTCAAA  0.194
26. ATATAGAC  0.191
27. CACCTCGA  0.188
28. AATACCGT  0.188
29. CGAAGGAA  0.18
30. TCTTTTAA  0.176
31. ATTGCGGA  0.175
32. TCCGTTCA  0.175
33. CTTTTAAA  0.173
34. ACGCAACG  0.17
35. ACAATAAA  0.17
36. AGTGTTAC  0.17
37. ATAATTTG  0.166
38. AAGGCCGT  0.156
39. ACCGTAAG  0.154
40. CCAGCCGC  0.152
41. GTGTGTTA  0.152
42. CACAAAAG  0.151
43. AAACAACA  0.149
44. CCCGGACC  0.149
45. GACAATAC  0.146
46. CAAAAGTA  0.141
47. AAGAAGCA  0.139
48. CGACGTCC  0.139
49. TCGTAAAA  0.138
50. ACTAGCCG  0.135
51. ATTTTGTA  0.134
52. GCTCGATA  0.134
53. TCAGTACA  0.13
54. GAATTTGC  0.13
55. CGGATGCA  0.128
56. ATCCTTCG  0.118
57. ACACGGCC  0.116
58. CTCTGACA  0.109
59. GCCGTTGA  0.107
60. ATCCGTAG  0.0954
61. ATGTTAAT  0.0916
62. CAGCTTCA  0.0904
63. ATCGGAGC  0.0876
64. GAGAACGA  0.0869
65. ACACAAAC  0.086
66. AACTGCAA  0.0848
67. CGATTATC  0.0805
68. ACTCAAAA  0.0736
69. AATTAGAA  0.0727
70. CGAGAAAA  0.072
71. CACCGTAA  0.0695
72. AAACACGA  0.0634
73. CGGGGATA  0.0634
74. CCGCAGCA  0.0615
75. CTCTCCAA  0.061
76. CTAATCGC  0.0588
77. CGGGTCTA  0.0467
78. ACACGCAA  0.0456
79. CTGCAATC  0.0432
80. ATCAATAG  0.0419
81. AAGTCTCG  0.041
82. CGACAATC  0.0409
83. GTAGTATA  0.0407
84. CGTAGCGA  0.0394
85. AGATTATA  0.0366
86. AGATCTCA  0.0334
87. GCGAGGCA  0.0332
88. AATCTAAT  0.0331
89. ACGCTTGA  0.0312
90. ACTATCCA  0.0283
91. TCACTGAA  0.0275
92. GCTGCAGA  0.0256
93. ATAGCTAC  0.0242
94. AGAGTACG  0.0239
95. CCACATCG  0.0234
96. ACCGCATG  0.0226
97. TCATGCCA  0.0211
98. CTACGAAA  0.0184
99. CTTGAAGC  0.0169
100. AAATGGCA  0.0142
101. CCCGATGC  0.0129
102. AAATGGAA  0.00888
103. ACTGTCAC  0.00877
104. GTAGTGAC  0.00813
105. CACGATTA  0.00527
106. CATCTCTC  0.00431
107. GCTTATGA  0.00297
108. ATGGACCA  0.00123
109. AGTCGTTC  -0.00059
110. TAGGATCA  -0.0016
111. AAGGGTCG  -0.00512
112. ACGTATAA  -0.0101
113. ATGGGCTA  -0.0105
114. GAACTCAC  -0.0105
115. ACTAAAGT  -0.0105
116. ATTACCTG  -0.0119
117. GGTTTTTA  -0.0146
118. AGACATCA  -0.0192
119. AACGTAAT  -0.0198
120. CCACGAGA  -0.0203
121. GCTCGAGA  -0.0216
122. ATGGCACA  -0.0226
123. AGAACTCA  -0.0229
124. AACGCGAG  -0.0244
125. AGTTGGGC  -0.0254
126. AGTGATCA  -0.0276
127. ACCCGTAC  -0.0295
128. GGCTGTAA  -0.0316
129. CCACGTTA  -0.0344
130. AGTCTTCC  -0.0346
131. CGCGCAAC  -0.0356
132. AAAACTGA  -0.0375
133. CAGCCCTC  -0.0383
134. CCCGTTAA  -0.0453
135. ATTCCAGC  -0.0455
136. TCTCTGCA  -0.052
137. ACTGACCC  -0.0524
138. GGCGCACC  -0.0534
139. GACACTTA  -0.0563
140. ACTCGAAT  -0.0582
141. GCACTGAC  -0.0589
142. CTAGAGTA  -0.0589
143. CATCGACG  -0.059
144. CTAACGCA  -0.0604
145. GGCTATGA  -0.0611
146. CATGCTCG  -0.0635
147. ACGACGCT  -0.0656
148. TCAGCGAA  -0.0684
149. AAACACTT  -0.072
150. TATTTGGA  -0.0743
151. GGCCATGA  -0.0764
152. TCTGAAGA  -0.0768
153. AGGAAAGC  -0.0785
154. CAGCCACC  -0.0795
155. CATAGGAA  -0.0805
156. CACCGTGC  -0.0814
157. CCGCAAGG  -0.085
158. AGGTGTTA  -0.0862
159. ATAAAGGC  -0.0884
160. CTCAGACC  -0.09
161. CGGGGTCC  -0.0914
162. CGCGACCA  -0.0919
163. ATAGGCGC  -0.0933
164. ATTAGAGG  -0.0936
165. CCCCGTCA  -0.0936
166. ACTAACTA  -0.0967
167. AGTAGTGG  -0.0968
168. CGCTGAGC  -0.106
169. ATGTTCCC  -0.107
170. TAAGATGA  -0.111
171. AGCACCAC  -0.112
172. GCAACCCA  -0.112
173. CCCAGACA  -0.117
174. CTCCCTCA  -0.119
175. CCAAACCA  -0.119
176. ACATGTCA  -0.12
177. GCGCTACC  -0.133
178. AGACGTAT  -0.135
179. CGCATCCA  -0.136
180. CCTACGAC  -0.141
181. AAGACGCT  -0.144
182. GTGAGGTA  -0.148
183. ATAAGGGA  -0.149
184. AAGGCTTA  -0.15
185. AACCCTTC  -0.15
186. AACTGCAG  -0.152
187. AGAACCCA  -0.157
188. CCATTGAC  -0.166
189. AGTCTGAC  -0.173
190. CCTGCGCC  -0.183
191. CCTCTGCA  -0.184
192. AGGCGGTG  -0.185
193. AGGCTCGC  -0.185
194. AGGCATTA  -0.187
195. AGTCCTCC  -0.195
196. GAGGACCA  -0.198
197. GATGGCAC  -0.201
198. GAGTCCAC  -0.203
199. GGTGAGAC  -0.209
200. CAAAGGGC  -0.223
201. GGTGGGTA  -0.224
202. AGGCGGGC  -0.225
203. CAGGGCTC  -0.226
204. CTATGGCA  -0.229
205. CCAACCAA  -0.235
206. CACACGAG  -0.237
207. AGATGGAT  -0.238
208. AACATTGG  -0.242
209. ATGGGACG  -0.243
210. ACGCCACC  -0.244
211. ACCCCTAG  -0.252
212. GCCCTGGA  -0.255
213. GAGGGACA  -0.263
214. ACACCAGT  -0.263
215. ATAGGACA  -0.269
216. AAATGGGG  -0.289
217. CAGGGTTA  -0.298
218. CCCCAGAC  -0.31
219. CCCAGGTC  -0.431
